Results are given in words; binding and its absence hold for the method and conditions named. In cells and extracts the contact can be indirect. Binding can be weak; no strength is given. Where a sequence is shown, tags or fusion partners need not be part of it.
Legend:
IFI16 from BMDM (mouse) [1] = experiment: GST pull-down from BMDM lysates (FIG. 11a)
IFI16 from BMDM (mouse) [2] = experiment: figure title; GST pull-down from BMDM lysates

- binding (IFI16 from BMDM (mouse) [1]): binds
- binding (IFI16 from BMDM (mouse) [2]): binds
B1: GST-POP3 (other)
chain: MESKYKEILLLTSLDNITDEELDRFKCFLPDEFNIATGKLHTLNSTSSQLDLKRWHGVCSEEDRIFQKLNYMLVAKCLREEQETGICGSPSSARSVSQSRLGLSFHGISGNAC
notes: also called recombinant POP3; immobilized GST-POP3; not shown: glutathione S-transferase (GST) tag encoded by pGEX-4T1
